# The list does not hold the whole screen: it is rich in T/C values a quarter to a half above the control, in often repeated tests (any T/C) and in doses without a T/C. Further doses and runs are listed elsewhere. T/C: endpoint of the treated group in % of that of the vehicle group. Some entries give survivors of the animals treated and no T/C: the source files T/C as zero there, which appears to mark a toxic dose or a test without result, not a measured value. Some survivor counts are full or nearly so, which does not show that the dose was tolerated: survival well below the control is almost never listed, so the zero probably covers shortened survival too. Counts of survivors are from the toxicity check (mostly the fifth day) where no day follows; animals may have died later. Schedules are NCI's codes, taken here to give the interval after Q, in days (D) or hours (H), and the number of doses after X. For survival time, the PubChem record calls one and a half times the control and up active, and a quarter to a half above the control has no call in these data; cut-offs in other NCI protocols can differ. Some entries hold several experiments; the values are given in rising order. Some T/C values carry the count of animals alive at the toxicity check (mostly the fifth day); without a count, all were alive then.
# System: P388 leukemia ip, CD2F1 mice, survival T/C
# Test: NCI In Vivo Anticancer Drug Screen. Data for tumor model P388 Leukemia (intraperitoneal) in CD2F1 (CDF1) mice
# Conditions: T/C endpoint: median survival time, higher T/C = longer survival
# [1] = dose: 200.0 mg/kg/injection, schedule: Q01DX001 (ip), vehicle: Klucel (hydroxypropylcellulose) (HPC)
# [2] = dose: 240.0 mg/kg/injection, schedule: Q01DX005 (ip), vehicle: Klucel (hydroxypropylcellulose) (HPC)
# [3] = dose: 50.0 mg/kg/injection, schedule: Q01DX009 (ip), vehicle: saline with Tween-80
# [4] = dose: 100.0 mg/kg/injection, schedule: Q01DX009 (ip), vehicle: saline with Tween-80
# [5] = dose: 200.0 mg/kg/injection, schedule: Q01DX009 (ip), vehicle: saline with Tween-80
# [6] = dose: 200.0 mg/kg/injection, schedule: Q01DX009 (ip), vehicle: saline
# [7] = dose: 240.0 mg/kg/injection, schedule: Q01DX005 (ip), vehicle: saline with Tween-80
# [8] = dose: 80.0 micrograms/kg/injection, schedule: Q01DX005 (ip), vehicle: saline + alcohol
# [9] = dose: 100.0 mg/kg/injection, schedule: Q01DX005 (ip), vehicle: Klucel (hydroxypropylcellulose) (HPC)
# [10] = dose: 200.0 mg/kg/injection, schedule: Q01DX005 (ip), vehicle: Klucel (hydroxypropylcellulose) (HPC)
compound,measurement,setting,value
Cc1nc2sccn2c1C#N,survivor count,"dose: 100.0 mg/kg/injection, schedule: Q01DX001 (ip), vehicle: Klucel (hydroxypropylcellulose) (HPC)",3 of 6
same,survivor count,[1],0 of 6
same,survivor count,"dose: 400.0 mg/kg/injection, schedule: Q01DX001 (ip), vehicle: Klucel (hydroxypropylcellulose) (HPC)",0 of 6
O=C1C(N=Nc2ccc(Br)cc2)Sc2nc3ccccc3n21 (configuration not stated),survivor count,[2],6 of 6
COc1ccc(C(=O)C(CN2CCOCC2)CN2CCOCC2)cc1,survivor count,"dose: 240.0 mg/kg/injection, schedule: Q01DX005 (ip), vehicle: saline",0 of 6
COC1=CC(=O)C(Cl)=C(OC)C1=O,survivor count,[3],0 of 6
same,survivor count,[4],0 of 6
same,survivor count,[5],0 of 6
CN(C)P(=O)(N=S=NC(C)(C)C)N(C)C,survivor count,[6],0 of 6
NS(=O)(=O)c1ncnc2nc[nH]c12,T/C,"dose: 15.0 mg/kg/injection, schedule: Q01DX009 (ip), vehicle: saline with Tween-80",131 % of control
same,T/C,"dose: 22.5 mg/kg/injection, schedule: Q01DX009 (ip), vehicle: saline with Tween-80",129 % of control
same,survivor count,"dose: 120.0 mg/kg/injection, schedule: Q01DX009 (ip), vehicle: saline with Tween-80",2 of 6
CC(=O)Nc1ccc(/C=C2\C(=O)Nc3ccccc32)cc1,survivor count,"dose: 50.0 mg/kg/injection, schedule: Q01DX009 (ip), vehicle: Klucel (hydroxypropylcellulose) (HPC)",6 of 6
same,survivor count,"dose: 100.0 mg/kg/injection, schedule: Q01DX009 (ip), vehicle: Klucel (hydroxypropylcellulose) (HPC)",6 of 6
same,survivor count,"dose: 200.0 mg/kg/injection, schedule: Q01DX009 (ip), vehicle: Klucel (hydroxypropylcellulose) (HPC)",5 of 6
Cc1c2c(n(C)c1C)C(=O)C=CC2=O,survivor count,[1],0 of 6
CCC(COC(=O)c1ccc(N(CC)CC)cc1)NC1CCCCC1 (configuration not stated),survivor count,[7],0 of 6
O=C(OC1CCc2ccccc2C1)c1ccc(N=Nc2ccccc2)cc1 (configuration not stated),survivor count,"dose: 60.0 mg/kg/injection, schedule: Q01DX005 (ip), vehicle: saline with Tween-80",6 of 6
same,survivor count,[7],6 of 6
Cc1cc(Br)c(OC(=O)Nc2cccc(Cl)c2Cl)cc1C,survivor count,[5],6 of 6
CCn1c(C)nc2c(N)cc(C(F)(F)F)cc21 (tested in a mixture with another compound),survivor count,[2],0 of 6
CCNCC1c2ccccc2-c2nc3ccccc3nc2-c2ccccc21,survivor count,"dose: 400.0 mg/kg/injection, schedule: Q04DX002 (ip), vehicle: saline with Tween-80",0 of 6
O=[N+]([O-])c1c(N2CCN(CCO)CC2)ccc2nonc12,survivor count,"dose: 200.0 mg/kg/injection, schedule: Q01DX009 (ip), vehicle: suspension in saline",5 of 6
CCCCCCCC(=O)O[C@H]1[C@H]2[C@@H](CC1(C)C)C(=O)[C@]13O[C@H]1C(=O)[C@]1(CO1)[C@]23C,T/C,"dose: 3.3 mg/kg/injection, schedule: Q01DX009 (ip), vehicle: saline with Tween-80",127 % of control
same,T/C,"dose: 5.0 mg/kg/injection, schedule: Q01DX009 (ip), vehicle: saline",140 % of control [5 of 6 alive]
same,survivor count,"dose: 20.0 mg/kg/injection, schedule: Q01DX009 (ip), vehicle: saline with Tween-80",3 of 6
same,survivor count,"dose: 20.0 mg/kg/injection, schedule: Q01DX009 (ip), vehicle: saline",1 of 6
CC1C(O)[C@@]2(OC[C@@]34C(=O)CC5(O)[C@H](CCC6Cc7nc8c(nc7C[C@]65C)CC5CC[C@@H]6C7=C[C@H]9O[C@@]%10(O[C@@](C)(CO)C[C@@H]%10O)C(C)[C@@]9(O)[C@]7(C)[C@@H](O)CC6[C@]5(C)C8)C3=CC[C@H]4C2C)OC1(C)C (some centres not stated),survivor count,"dose: 75.0 micrograms/kg/injection, schedule: Q01DX009 (ip), vehicle: saline + alcohol",6 of 6
same,T/C,[8],130 % of control
same,survivor count,[8],6 of 6
same,survivor count,"dose: 80.0 micrograms/kg/injection, schedule: Q01DX009 (ip), vehicle: saline + alcohol",6 of 6
same,survivor count,"dose: 150.0 micrograms/kg/injection, schedule: Q01DX009 (ip), vehicle: saline + alcohol",2 of 6
same,survivor count,"dose: 160.0 micrograms/kg/injection, schedule: Q01DX005 (ip), vehicle: saline + alcohol",2 of 6
same,survivor count,"dose: 160.0 micrograms/kg/injection, schedule: Q01DX009 (ip), vehicle: saline + alcohol",1 of 6
same,survivor count,"dose: 300.0 micrograms/kg/injection, schedule: Q01DX009 (ip), vehicle: saline + alcohol",0 of 5
same,survivor count,"dose: 320.0 micrograms/kg/injection, schedule: Q01DX009 (ip), vehicle: saline + alcohol",0 of 6
same,survivor count,"dose: 600.0 micrograms/kg/injection, schedule: Q01DX009 (ip), vehicle: saline + alcohol",0 of 4
Oc1c(Cl)cc(Cl)cc1/C=N/c1nc(-c2ccc(Cl)cc2)cs1,survivor count,"dose: 6.25 mg/kg/injection, schedule: Q01DX009 (ip), vehicle: saline with Tween-80",6 of 6
same,survivor count,"dose: 12.5 mg/kg/injection, schedule: Q01DX009 (ip), vehicle: saline with Tween-80",6 of 6
same,survivor count,"dose: 25.0 mg/kg/injection, schedule: Q01DX009 (ip), vehicle: saline with Tween-80",6 of 6
same,survivor count,[3],5 of 6
N=C(N)SCc1ccccc1[N+](=O)[O-],survivor count,[4],3 of 6
same,survivor count,[5],0 of 6
same,survivor count,"dose: 400.0 mg/kg/injection, schedule: Q01DX009 (ip), vehicle: saline with Tween-80",0 of 6
COc1cc(NC(=O)C2=C(C)NC(C)=C(C(=O)Nc3cc(OC)c(Cl)cc3OC)C2c2cccc([N+](=O)[O-])c2)c(OC)cc1Cl,survivor count,[2],6 of 6
ClCSc1ccccc1C1=NCCCN1,survivor count,"dose: 6.25 mg/kg/injection, schedule: Q01DX005 (ip), vehicle: saline",0 of 6
same,survivor count,"dose: 12.5 mg/kg/injection, schedule: Q01DX005 (ip), vehicle: saline",0 of 6
same,survivor count,"dose: 25.0 mg/kg/injection, schedule: Q01DX005 (ip), vehicle: saline",0 of 6
same,survivor count,"dose: 50.0 mg/kg/injection, schedule: Q01DX005 (ip), vehicle: saline",0 of 6
same,survivor count,"dose: 100.0 mg/kg/injection, schedule: Q01DX005 (ip), vehicle: saline",0 of 6
same,survivor count,"dose: 200.0 mg/kg/injection, schedule: Q01DX005 (ip), vehicle: saline",0 of 6
COc1cc2c(c3c1c(=O)c1cccc(F)c1n3C)C=CC(C)(C)O2,T/C,[9],127 % of control
same,T/C,[10],138 and 140 % of control
Cc1ccc(-n2c(C)nc3c(c(C)c(C)n3-c3ccccc3)c2=N)cc1,survivor count,"dose: 50.0 mg/kg/injection, schedule: Q01DX005 (ip), vehicle: Klucel (hydroxypropylcellulose) (HPC)",0 of 6
same,survivor count,[9],0 of 6
same,survivor count,[10],0 of 6
OCc1c(Cl)nc2n1CCS2,survivor count,"dose: 100.0 mg/kg/injection, schedule: Q01DX001 (ip), vehicle: saline with Tween-80",0 of 6
Cn1c(-c2ccccc2)c2c(=O)oc3ccccc3c2c1-c1ccccc1,survivor count,"dose: 200.0 mg/kg/injection, schedule: Q04DX003 (ip), vehicle: Klucel (hydroxypropylcellulose) (HPC)",6 of 6
same,survivor count,"dose: 400.0 mg/kg/injection, schedule: Q04DX003 (ip), vehicle: Klucel (hydroxypropylcellulose) (HPC)",6 of 6
CC(=O)OC/C=C(\C)CC(/C=C(C)/C=C/C1=C(C)CCCC1(C)C)S(=O)(=O)c1ccccc1 (configuration not stated),survivor count,[4],6 of 6
CCN(C(=S)NNC(=S)N/N=C(\C)c1ccccn1)c1ccccc1,survivor count,"dose: 200.0 mg/kg/injection, schedule: Q01DX005 (ip), vehicle: saline with Tween-80",6 of 6
CC1C2Cc3ccc(O)cc3C1(C)CCN2C (configuration not stated),survivor count,[7],1 of 6
O[C@]12CC=CC[C@]1(O)CC(N1CCCCC1)C2,survivor count,[4],6 of 6
Cc1cc(C)n(-c2nnc(-n3nc(C)cc3C)c3ccccc23)n1,survivor count,[6],6 of 6
O=c1c(Cc2c(-c3ccccc3)[nH]c3ccccc23)coc2ccccc12,survivor count,[7],6 of 6
CC1([P+](C)(C)C)C2C=CC1CC2 (configuration not stated),survivor count,"dose: 200.0 mg/kg/injection, schedule: Q01DX001 (ip), vehicle: saline with Tween-80",1 of 6
same,survivor count,"dose: 400.0 mg/kg/injection, schedule: Q01DX001 (ip), vehicle: saline with Tween-80",0 of 6
